Measured values taken from paper PMC8354635.
No constants are given. Whether binding was seen depends on the method and setting. Binding seen in cells or lysates may run through a third protein. Some binding calls cover weakened binding; strength is not graded here.

Biological target: T1, HASt-C21orf70 (UniProt Q9NSI2)
T1 sequence: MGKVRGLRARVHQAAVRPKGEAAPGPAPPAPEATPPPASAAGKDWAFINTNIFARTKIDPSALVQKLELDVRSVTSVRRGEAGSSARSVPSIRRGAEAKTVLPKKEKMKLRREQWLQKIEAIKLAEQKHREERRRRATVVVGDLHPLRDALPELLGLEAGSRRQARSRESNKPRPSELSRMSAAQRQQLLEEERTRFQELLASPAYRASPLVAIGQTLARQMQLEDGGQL
Test: pull-down; StrepTactin affinity purification of HASt-C21orf70 from HEK293 lysate (10 mM Tris pH 7.5, 100 mM KCl, 2 mM MgCl2, 1 mM DTT, 0.5% NP-40), beads 60 min at 4°C, elution with 2 mM biotin; eluates immunoblotted

binding: binds
B1: NOC4L (protein, UniProt Q9BVI4 1-516)
chain: MEREPGAAGVRRALGRRLEAVLASRSEANAVFDILAVLQSEDQEEIQEAVRTCSRLFGALLERGELFVGQLPSEEMVMTGSQGATRKYKVWMRHRYHSCCNRLGELLGHPSFQVKELALSALLKFVQLEGAHPLEKSKWEGNYLFPRELFKLVVGGLLSPEEDQSLLLSQFREYLDYDDTRYHTMQAAVDAVARVTGQHPEVPPAFWNNAFTLLSAVSLPRREPTVSSFYVKRAELWDTWKVAHLKEHRRVFQAMWLSFLKHKLPLSLYKKVLLIVHDAILPQLAQPTLMIDFLTRACDLGGALSLLALNGLFILIHKHNLEYPDFYRKLYGLLDPSVFHVKYRARFFHLADLFLSSSHLPAYLVAAFAKRLARLALTAPPEALLMVLPFICNLLRRHPACRVLVHRPHGPELDADPYDPGEEDPAQSRALESSLWELQALQRHYHPEVSKAASVINQALSMPEVSIAPLLELTAYEIFERDLKKKGPEPVPLEFIPAQGLLGRPGELCAQHFTLS
